Some entries share one result that the patent states for a list of compounds.
Experiment: Substrate stability towards detergents and solvents (extinction at 550 nm)
Type: physicochemical
Details: 1% agent

Decrease of the extinction (amount of substrate) | Compound
at most 30% | CCCCCCCCCCCCOS(=O)(=O)[O-].[Na+] [SDS, Sodium dodecyl sulfate]
at most 30% | Triton ® X-100 [TX-100]

Source: US6783949B1, “Processes for determining whether a test substance contains lipases or lipase inhibitors” (Aventis Pharma Deutschland GmbH, priority 1999, dated 2004)
